From paper doi:10.1101/260083 come the findings set out here.

The chains behind the UniProt entries cited, without tags or fusion partners. Where a name states a change or a piece, a line headed by the entry shows the natural chain unless it says otherwise. Residues count along the entry.
UniProt Q8N2Q7, 46-863: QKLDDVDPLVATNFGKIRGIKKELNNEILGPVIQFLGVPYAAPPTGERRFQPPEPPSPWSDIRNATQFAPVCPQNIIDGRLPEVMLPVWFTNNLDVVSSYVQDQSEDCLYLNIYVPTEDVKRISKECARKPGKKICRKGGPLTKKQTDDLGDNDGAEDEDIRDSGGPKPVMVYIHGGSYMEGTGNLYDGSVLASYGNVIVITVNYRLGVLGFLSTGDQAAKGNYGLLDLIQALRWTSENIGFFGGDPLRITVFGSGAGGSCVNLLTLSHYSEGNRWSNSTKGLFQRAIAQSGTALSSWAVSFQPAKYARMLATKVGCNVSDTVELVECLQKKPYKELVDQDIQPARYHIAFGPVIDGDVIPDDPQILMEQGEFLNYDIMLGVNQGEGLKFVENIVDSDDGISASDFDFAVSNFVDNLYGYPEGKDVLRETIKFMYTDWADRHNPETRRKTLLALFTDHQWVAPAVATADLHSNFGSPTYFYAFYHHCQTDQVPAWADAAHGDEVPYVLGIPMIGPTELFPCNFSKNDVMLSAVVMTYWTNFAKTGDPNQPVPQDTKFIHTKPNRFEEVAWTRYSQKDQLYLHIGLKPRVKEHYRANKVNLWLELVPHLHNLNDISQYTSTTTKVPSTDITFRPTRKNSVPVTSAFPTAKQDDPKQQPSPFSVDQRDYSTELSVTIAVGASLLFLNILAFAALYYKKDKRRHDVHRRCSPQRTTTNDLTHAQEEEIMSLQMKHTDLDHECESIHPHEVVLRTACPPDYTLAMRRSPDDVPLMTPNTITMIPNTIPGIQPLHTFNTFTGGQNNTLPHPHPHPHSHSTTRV
UniProt Q8NFZ4, 15-835: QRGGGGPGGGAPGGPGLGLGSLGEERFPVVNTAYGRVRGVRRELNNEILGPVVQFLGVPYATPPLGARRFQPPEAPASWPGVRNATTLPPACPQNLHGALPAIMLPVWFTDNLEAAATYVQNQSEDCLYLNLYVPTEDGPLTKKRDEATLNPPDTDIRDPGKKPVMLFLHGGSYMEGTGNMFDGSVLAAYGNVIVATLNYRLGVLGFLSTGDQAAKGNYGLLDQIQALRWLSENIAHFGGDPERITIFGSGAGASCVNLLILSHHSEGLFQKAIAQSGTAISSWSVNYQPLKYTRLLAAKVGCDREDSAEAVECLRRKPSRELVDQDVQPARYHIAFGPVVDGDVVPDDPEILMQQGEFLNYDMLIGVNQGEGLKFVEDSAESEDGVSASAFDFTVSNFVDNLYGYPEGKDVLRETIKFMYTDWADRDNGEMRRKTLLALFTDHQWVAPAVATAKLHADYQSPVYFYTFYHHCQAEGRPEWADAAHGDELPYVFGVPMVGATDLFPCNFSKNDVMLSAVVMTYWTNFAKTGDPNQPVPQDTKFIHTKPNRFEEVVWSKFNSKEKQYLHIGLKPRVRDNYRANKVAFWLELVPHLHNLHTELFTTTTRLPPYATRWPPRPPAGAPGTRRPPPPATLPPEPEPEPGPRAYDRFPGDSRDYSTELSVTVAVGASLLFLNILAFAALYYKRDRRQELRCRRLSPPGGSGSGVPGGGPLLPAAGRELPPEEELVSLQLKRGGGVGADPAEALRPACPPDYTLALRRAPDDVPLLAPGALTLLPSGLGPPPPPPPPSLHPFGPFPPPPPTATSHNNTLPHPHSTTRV
UniProt Q9BYB0, whole entry: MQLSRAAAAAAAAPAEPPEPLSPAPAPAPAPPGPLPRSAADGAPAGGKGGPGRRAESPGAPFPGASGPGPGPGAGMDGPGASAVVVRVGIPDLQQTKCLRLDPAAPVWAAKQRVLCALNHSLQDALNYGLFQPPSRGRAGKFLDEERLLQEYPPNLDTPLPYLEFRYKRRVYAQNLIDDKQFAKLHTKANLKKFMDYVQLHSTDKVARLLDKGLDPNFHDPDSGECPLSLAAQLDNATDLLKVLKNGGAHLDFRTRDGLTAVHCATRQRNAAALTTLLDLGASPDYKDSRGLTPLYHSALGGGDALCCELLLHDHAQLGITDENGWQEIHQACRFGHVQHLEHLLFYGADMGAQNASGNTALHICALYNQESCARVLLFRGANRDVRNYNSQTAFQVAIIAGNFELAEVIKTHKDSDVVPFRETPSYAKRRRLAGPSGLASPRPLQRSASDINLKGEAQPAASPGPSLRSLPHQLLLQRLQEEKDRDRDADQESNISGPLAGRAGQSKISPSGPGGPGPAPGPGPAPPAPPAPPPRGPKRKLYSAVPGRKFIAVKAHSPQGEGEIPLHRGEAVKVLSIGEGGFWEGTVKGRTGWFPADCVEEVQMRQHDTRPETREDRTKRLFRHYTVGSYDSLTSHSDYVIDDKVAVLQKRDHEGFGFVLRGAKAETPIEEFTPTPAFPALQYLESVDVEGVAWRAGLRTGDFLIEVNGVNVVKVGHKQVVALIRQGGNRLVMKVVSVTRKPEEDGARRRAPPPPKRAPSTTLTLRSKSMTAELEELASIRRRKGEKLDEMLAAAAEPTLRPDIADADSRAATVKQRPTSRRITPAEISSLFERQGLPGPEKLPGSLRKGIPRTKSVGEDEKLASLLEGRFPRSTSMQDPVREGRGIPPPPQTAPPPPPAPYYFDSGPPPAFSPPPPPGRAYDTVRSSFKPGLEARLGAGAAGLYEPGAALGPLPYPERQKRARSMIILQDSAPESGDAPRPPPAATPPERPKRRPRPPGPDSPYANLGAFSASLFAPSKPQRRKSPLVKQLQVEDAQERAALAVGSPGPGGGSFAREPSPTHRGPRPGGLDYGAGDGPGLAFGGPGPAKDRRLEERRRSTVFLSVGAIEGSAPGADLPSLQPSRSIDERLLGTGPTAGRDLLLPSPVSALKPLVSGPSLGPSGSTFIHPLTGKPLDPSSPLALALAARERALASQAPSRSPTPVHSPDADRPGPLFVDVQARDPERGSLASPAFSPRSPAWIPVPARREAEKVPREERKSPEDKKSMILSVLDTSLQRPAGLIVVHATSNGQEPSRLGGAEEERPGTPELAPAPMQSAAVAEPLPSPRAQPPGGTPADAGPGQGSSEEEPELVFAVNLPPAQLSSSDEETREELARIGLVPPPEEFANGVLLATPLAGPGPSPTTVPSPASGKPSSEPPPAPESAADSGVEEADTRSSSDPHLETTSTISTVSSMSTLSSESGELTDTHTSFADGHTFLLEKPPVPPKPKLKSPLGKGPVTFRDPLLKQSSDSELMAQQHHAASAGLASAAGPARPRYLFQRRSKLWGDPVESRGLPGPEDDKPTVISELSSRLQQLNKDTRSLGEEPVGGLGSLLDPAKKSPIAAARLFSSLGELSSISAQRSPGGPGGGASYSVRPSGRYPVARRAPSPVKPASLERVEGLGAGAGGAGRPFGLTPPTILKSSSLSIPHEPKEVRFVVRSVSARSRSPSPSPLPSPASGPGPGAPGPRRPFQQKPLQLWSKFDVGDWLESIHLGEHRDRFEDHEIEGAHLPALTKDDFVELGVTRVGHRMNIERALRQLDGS

Results are given in words; binding and its absence hold for the method and conditions named. Binding seen in cells or lysates may run through a third protein. Some entries that bind do so weakly or less than the wild type. Tags and fused reporters may be left off the sequences shown.

Assay [1] has as its target T1, myc-CNTNAP3 (full-length human CNTNAP3) (human) (UniProt Q9BZ76).
T1 sequence: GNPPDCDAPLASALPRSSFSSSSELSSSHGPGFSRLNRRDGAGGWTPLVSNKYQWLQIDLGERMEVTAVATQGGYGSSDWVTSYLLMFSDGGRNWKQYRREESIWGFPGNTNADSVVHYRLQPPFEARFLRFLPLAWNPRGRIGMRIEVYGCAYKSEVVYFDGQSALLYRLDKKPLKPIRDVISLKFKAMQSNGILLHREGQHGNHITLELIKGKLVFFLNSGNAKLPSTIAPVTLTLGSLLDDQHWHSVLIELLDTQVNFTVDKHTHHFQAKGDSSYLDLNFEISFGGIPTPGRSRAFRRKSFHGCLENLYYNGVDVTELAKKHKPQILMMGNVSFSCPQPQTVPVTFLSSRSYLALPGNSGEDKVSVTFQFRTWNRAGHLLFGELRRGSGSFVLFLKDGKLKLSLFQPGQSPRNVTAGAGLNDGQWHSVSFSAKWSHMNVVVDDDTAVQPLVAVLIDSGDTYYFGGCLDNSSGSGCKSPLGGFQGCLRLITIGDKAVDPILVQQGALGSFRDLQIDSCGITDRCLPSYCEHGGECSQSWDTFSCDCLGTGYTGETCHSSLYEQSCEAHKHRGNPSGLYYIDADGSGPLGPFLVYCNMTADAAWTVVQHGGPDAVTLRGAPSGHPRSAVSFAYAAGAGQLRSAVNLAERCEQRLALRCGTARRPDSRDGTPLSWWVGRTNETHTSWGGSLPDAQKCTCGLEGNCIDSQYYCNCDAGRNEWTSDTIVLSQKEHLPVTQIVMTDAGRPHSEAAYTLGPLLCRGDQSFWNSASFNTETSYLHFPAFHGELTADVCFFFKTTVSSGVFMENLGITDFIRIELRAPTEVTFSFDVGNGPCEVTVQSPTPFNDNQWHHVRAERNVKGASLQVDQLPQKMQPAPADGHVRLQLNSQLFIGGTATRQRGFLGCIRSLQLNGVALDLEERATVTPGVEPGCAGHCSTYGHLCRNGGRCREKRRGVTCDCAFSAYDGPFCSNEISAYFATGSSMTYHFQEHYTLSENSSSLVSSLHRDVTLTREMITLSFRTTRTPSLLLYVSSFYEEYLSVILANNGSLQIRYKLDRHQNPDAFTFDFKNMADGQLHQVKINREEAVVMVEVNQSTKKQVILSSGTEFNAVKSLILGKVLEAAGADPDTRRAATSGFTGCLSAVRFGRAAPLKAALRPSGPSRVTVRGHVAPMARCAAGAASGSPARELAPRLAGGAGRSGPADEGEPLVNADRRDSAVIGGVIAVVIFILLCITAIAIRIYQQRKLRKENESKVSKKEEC
In words: co-IP.

In assay [2] the target is T2, myc-R1219X (CNTNAP3 R1219X) (human) (UniProt Q9BZ76).
T2 sequence: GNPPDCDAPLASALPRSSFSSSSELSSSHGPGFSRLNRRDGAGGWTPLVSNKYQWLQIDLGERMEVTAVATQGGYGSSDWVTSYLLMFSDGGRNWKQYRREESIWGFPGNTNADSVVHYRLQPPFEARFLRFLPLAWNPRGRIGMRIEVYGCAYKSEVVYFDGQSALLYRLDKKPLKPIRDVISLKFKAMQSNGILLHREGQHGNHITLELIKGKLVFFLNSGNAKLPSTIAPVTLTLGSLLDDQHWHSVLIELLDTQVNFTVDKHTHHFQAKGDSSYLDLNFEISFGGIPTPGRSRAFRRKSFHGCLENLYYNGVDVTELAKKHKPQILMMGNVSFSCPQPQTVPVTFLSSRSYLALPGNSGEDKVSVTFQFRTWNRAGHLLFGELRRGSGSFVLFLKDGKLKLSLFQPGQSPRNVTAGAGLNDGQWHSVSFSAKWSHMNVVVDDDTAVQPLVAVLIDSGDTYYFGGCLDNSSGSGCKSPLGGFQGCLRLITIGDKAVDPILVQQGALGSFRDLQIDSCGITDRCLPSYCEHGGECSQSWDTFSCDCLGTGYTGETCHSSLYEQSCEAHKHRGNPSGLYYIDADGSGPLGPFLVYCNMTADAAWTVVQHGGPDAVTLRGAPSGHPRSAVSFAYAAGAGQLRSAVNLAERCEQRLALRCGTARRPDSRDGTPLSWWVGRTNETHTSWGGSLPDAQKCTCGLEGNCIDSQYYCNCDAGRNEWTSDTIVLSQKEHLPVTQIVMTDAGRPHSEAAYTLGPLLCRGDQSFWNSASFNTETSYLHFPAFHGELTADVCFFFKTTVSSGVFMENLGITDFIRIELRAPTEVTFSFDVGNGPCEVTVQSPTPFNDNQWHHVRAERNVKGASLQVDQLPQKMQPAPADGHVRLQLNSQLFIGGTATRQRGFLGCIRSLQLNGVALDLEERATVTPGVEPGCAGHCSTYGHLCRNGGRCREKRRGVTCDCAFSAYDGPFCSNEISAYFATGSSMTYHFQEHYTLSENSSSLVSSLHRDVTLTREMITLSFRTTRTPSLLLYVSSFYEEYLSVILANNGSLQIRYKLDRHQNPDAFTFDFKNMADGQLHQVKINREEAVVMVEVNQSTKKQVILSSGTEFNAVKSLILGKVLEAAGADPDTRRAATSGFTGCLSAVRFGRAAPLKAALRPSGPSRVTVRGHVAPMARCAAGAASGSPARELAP
In words: co-IP.

As for “HA-NLGN1 (Neuroligin1) (from UniProt Q8N2Q7 46-863)”, the binding entry in assay [1] is “binds”.
Still for that read-out and setting: with “HA-NLGN2 (Neuroligin 2) (from UniProt Q8NFZ4 15-835)” the entry was “binds”; with SHANK3 (from UniProt Q9BYB0 1-1806), “no binding”.

B1: GFP-Gephyrin (protein, UniProt Q9NQX3 1-736)
chain: MATEGMILTNHDHQIRVGVLTVSDSCFRNLAEDRSGINLKDLVQDPSLLGGTISAYKIVPDEIEEIKETLIDWCDEKELNLILTTGGTGFAPRDVTPEATKEVIEREAPGMALAMLMGSLNVTPLGMLSRPVCGIRGKTLIINLPGSKKGSQECFQFILPALPHAIDLLRDAIVKVKEVHDELEDLPSPPPPLSPPPTTSPHKQTEDKGVQCEEEEEEKKDSGVASTEDSSSSHITAAAIAAKIPDSIISRGVQVLPRDTASLSTTPSESPRAQATSRLSTASCPTPKVQSRCSSKENILRASHSAVDITKVARRHRMSPFPLTSMDKAFITVLEMTPVLGTEIINYRDGMGRVLAQDVYAKDNLPPFPASVKDGYAVRAADGPGDRFIIGESQAGEQPTQTVMPGQVMRVTTGAPIPCGADAVVQVEDTELIRESDDGTEELEVRILVQARPGQDIRPIGHDIKRGECVLAKGTHMGPSEIGLLATVGVTEVEVNKFPVVAVMSTGNELLNPEDDLLPGKIRDSNRSTLLATIQEHGYPTINLGIVGDNPDDLLNALNEGISRADVIITSGGVSMGEKDYLKQVLDIDLHAQIHFGRVFMKPGLPTTFATLDIDGVRKIIFALPGNPVSAVVTCNLFVVPALRKMQGILDPRPTIIKARLSCDVKLDPRPEYHRCILTWHHQEPLPWAQSTGNQMSSRLMSMRSANGLLMLPPKTEQYVELHKGEVVDVMVIGRL
On to B1, for which the results for the binding entry in assay [1] and in assay [2] were “binds” and “no binding”, respectively.
